Test [1] has as its target T1, ADAR1 p150 (adenosine deaminase acting on RNA 1, p150 isoform) (human) (UniProt P55265).
T1 sequence: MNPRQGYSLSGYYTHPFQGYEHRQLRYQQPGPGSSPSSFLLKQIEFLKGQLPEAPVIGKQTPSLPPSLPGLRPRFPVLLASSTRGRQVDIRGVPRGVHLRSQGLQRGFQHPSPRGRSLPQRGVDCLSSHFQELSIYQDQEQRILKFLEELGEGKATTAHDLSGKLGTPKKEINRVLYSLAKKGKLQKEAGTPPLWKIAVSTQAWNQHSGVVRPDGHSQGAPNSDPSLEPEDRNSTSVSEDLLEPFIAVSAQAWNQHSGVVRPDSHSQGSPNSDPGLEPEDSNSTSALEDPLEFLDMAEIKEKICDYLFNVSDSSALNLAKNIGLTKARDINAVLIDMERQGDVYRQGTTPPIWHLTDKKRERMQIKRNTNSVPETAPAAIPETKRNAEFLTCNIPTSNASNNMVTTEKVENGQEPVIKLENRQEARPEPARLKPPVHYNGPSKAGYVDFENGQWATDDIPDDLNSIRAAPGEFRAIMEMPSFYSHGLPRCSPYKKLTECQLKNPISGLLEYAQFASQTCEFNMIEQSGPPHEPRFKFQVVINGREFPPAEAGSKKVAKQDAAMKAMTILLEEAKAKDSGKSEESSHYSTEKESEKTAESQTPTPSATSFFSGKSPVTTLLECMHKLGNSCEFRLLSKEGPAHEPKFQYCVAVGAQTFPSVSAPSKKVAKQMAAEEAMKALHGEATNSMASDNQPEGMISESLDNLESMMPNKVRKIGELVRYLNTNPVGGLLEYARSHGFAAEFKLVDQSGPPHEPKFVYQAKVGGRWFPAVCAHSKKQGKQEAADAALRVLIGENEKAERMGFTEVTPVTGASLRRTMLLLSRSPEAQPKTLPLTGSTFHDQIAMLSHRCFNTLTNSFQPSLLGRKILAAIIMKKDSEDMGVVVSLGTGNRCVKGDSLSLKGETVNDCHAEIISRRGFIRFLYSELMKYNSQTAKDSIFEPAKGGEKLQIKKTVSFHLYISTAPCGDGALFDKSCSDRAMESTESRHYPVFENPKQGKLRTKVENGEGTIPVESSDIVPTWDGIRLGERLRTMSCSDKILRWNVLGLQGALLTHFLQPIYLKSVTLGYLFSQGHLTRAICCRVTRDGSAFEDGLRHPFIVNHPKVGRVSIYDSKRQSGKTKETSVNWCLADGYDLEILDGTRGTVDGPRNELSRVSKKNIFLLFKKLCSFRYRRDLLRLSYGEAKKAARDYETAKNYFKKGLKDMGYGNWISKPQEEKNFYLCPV
The test can be described thus: co-immunoprecipitation from transfected HEK293T lysate on anti-FLAG M2 magnetic beads, Western blot probed for ADAR1. (In general: A western blot detects proteins with antibodies after separation by electrophoresis.)

Amino acid sequences for entries named in this document (tags omitted).
UniProt Q9NRW3: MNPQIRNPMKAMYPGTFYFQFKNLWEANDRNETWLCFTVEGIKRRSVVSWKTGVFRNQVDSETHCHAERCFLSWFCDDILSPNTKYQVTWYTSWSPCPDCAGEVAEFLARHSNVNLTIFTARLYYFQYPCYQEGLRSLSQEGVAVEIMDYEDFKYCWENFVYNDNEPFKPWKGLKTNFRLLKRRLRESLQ

Test [2] concerns the target T1, ADAR1 p150 (adenosine deaminase acting on RNA 1, p150 isoform) (human). The test can be described thus: co-immunoprecipitation (anti-FLAG beads, Western blot for ADAR1), HEK293T cells.

No constants are given. Whether binding was seen depends on the method and setting. In cells and extracts the contact can be indirect. Some binding calls cover weakened binding; strength is not graded here.

“APOBEC3C-FLAG (from UniProt Q9NRW3 1-190) (enzyme)”: the binding entry in test [1] and in test [2] was “binds” in each case.

For the origin of these results see patent US20240108734A1, “METHODS FOR TREATING AND AMELIORATING CANCER” (The Regents of the University of California, priority 2021, published 2024).
